According to article PMC12396377:
No constants are given. Whether binding was seen depends on the method and setting. In cells and extracts the contact can be indirect. A yes stands for co-enrichment or nearness to the bait. Other partners may have been found. For some of these results: A no says only that the protein was not detected with the bait.

Sequences of proteins named here, by UniProt entry; tags and fusion partners are left off.
UniProt P19484: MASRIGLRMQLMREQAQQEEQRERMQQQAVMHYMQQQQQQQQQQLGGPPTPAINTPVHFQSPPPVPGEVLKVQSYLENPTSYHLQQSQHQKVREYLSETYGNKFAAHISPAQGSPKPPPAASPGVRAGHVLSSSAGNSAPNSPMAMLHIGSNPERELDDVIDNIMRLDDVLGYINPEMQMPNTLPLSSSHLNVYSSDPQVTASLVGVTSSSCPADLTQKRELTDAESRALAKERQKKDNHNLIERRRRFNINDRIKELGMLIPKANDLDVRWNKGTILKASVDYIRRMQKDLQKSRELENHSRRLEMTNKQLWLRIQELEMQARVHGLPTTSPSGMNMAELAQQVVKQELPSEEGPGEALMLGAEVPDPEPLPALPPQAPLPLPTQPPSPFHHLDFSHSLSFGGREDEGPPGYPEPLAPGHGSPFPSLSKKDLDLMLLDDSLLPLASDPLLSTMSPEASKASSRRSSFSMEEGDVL
UniProt P27695: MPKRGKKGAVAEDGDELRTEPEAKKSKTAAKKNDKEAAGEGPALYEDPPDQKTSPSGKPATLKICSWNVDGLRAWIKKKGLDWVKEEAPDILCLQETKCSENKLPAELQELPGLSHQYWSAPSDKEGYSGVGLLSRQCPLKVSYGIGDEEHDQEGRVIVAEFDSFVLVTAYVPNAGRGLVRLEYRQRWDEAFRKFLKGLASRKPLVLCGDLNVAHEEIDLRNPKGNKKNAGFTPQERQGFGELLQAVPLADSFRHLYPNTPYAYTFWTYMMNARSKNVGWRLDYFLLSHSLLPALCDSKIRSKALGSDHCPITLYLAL
UniProt Q99832: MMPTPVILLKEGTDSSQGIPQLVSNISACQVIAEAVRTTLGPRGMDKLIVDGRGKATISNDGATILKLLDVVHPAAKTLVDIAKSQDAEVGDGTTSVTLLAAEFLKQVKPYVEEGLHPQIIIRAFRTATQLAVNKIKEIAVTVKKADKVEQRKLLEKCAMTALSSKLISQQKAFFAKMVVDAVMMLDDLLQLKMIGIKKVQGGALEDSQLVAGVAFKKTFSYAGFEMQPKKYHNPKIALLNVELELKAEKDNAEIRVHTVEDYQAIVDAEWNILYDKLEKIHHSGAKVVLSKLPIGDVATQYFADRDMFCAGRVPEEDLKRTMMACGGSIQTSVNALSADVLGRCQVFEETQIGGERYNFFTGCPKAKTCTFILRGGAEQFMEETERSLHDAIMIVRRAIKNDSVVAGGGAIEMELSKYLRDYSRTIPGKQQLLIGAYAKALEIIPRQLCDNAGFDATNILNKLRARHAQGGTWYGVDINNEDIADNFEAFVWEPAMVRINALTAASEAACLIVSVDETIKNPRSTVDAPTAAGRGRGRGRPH

Assays:
[1] = target: TFEB::mNG (transcription factor EB fused to mNeonGreen) (UniProt P19484); test: condition: only cells treated with MK6-83 instead of LLOMe; affinity purification with mass spectrometry; WT HeLa cells stably expressing TFEB::mNG treated with MK6-83 (not LLOMe); cross-linking, mNG-Trap IP and MS; cutoff for enrichment log2 fold change >0.4
[2] = target: TFEB::mNG (transcription factor EB fused to mNeonGreen) (UniProt P19484); test: affinity purification with mass spectrometry; WT and ATG7 KO HeLa cells stably expressing TFEB::mNG, untreated or 1 mM LLOMe for 1 or 3 h, or MK6-83 for 3 h; 0.1% formaldehyde cross-linking; HEPES-RIPA lysate; mNG-Trap magnetic agarose beads, 4°C 2 h; on-bead digestion, LC-MS/MS, label-free quantification
[3] = target: TFEB::mNG (transcription factor EB fused to mNeonGreen) (UniProt P19484); test: as above; remark: listed apart in the source

APEX1 (apurinic/apyrimidinic endodeoxyribonuclease 1), endogenous (from UniProt P27695 1-318)
binding [1]: no binding
binding [2]: binds

CCT7 (chaperonin-containing TCP1 subunit 7), endogenous (from UniProt Q99832 1-543)
binding [2]: binds

B1: TRIP6 (thyroid hormone receptor interactor 6), endogenous (protein, UniProt Q15654 1-476)
chain: MSGPTWLPPKQPEPARAPQGRAIPRGTPGPPPAHGAALQPHPRVNFCPLPSEQCYQAPGGPEDRGPAWVGSHGVLQHTQGLPADRGGLRPGSLDAEIDLLSSTLAELNGGRGHASRRPDRQAYEPPPPPAYRTGSLKPNPASPLPASPYGGPTPASYTTASTPAGPAFPVQVKVAQPVRGCGPPRRGASQASGPLPGPHFPLPGRGEVWGPGYRSQREPGPGAKEEAAGVSGPAGRGRGGEHGPQVPLSQPPEDELDRLTKKLVHDMNHPPSGEYFGQCGGCGEDVVGDGAGVVALDRVFHVGCFVCSTCRAQLRGQHFYAVERRAYCEGCYVATLEKCATCSQPILDRILRAMGKAYHPGCFTCVVCHRGLDGIPFTVDATSQIHCIEDFHRKFAPRCSVCGGAIMPEPGQEETVRIVALDRSFHIGCYKCEECGLLLSSEGECQGCYPLDGHILCKACSAWRIQELSATVTTDC
binding [3]: binds
